Consider one substance from publication PMC9637222, “Autoinducer-2 and bile salts induce c-di-GMP synthesis to repress the T3SS via a T3SS chaperone” (Nature Communications, 2022).

The chains behind the UniProt entries cited, without tags or fusion partners.
UniProt P69066: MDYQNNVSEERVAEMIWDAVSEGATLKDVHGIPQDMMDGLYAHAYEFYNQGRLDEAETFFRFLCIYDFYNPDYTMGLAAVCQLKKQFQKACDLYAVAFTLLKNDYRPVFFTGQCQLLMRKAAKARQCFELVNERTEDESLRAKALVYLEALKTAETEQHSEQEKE
UniProt P0CL47: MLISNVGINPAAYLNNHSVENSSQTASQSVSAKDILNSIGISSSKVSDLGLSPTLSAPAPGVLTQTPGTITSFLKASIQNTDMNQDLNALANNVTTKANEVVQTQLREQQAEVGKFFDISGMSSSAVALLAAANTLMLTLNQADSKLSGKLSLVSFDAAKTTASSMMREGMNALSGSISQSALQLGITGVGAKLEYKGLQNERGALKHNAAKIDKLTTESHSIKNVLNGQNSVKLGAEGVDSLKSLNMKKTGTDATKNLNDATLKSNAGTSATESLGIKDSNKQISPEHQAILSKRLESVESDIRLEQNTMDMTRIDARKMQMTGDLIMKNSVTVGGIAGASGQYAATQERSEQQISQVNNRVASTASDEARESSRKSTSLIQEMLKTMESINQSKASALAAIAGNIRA

The target of this test is SicA-HA (S. Typhimurium) (UniProt P69066). Briefly: co-IP.

No constants are given. Whether binding was seen depends on the method and setting. In cells and extracts the contact can be indirect. Some results given as binding are weak or reduced against the parent protein; the word gives no strength.

As for SipC-His6 (from UniProt P0CL47 1-409), the binding entry is recorded as “binds”.
